Measured values as given in PubChem BioAssay AID504375 (National Center for Advancing Translational Sciences (NCATS), 2011).
About 25 (2%) of roughly 1,600 compounds were called active. Roughly 7% stayed inconclusive and do not appear here. The call rests on the fitted dose curve; in most records, active means well fitted inhibition curve with a large enough effect; inconclusive means small, poorly fitted or top-dose-only effect, or effect the other way; inactive means no such curve, though single readings can be large or run the other way. The list shows a part of the results.

The chains behind the UniProt entries cited, without tags or fusion partners.
UniProt Q01196, whole entry, looked up: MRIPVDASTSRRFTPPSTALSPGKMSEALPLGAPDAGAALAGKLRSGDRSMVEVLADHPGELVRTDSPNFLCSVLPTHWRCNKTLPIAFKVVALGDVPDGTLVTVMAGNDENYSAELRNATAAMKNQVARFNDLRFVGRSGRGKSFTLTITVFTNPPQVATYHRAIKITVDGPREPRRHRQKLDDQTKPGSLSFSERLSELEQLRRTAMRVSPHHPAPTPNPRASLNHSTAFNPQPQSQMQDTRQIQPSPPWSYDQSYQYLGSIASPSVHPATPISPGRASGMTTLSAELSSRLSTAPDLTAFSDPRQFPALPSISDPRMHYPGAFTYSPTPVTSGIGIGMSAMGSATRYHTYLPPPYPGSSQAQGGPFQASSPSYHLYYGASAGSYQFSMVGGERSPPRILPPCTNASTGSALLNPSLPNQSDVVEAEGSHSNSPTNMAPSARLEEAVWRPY
UniProt Q13951, whole entry, looked up: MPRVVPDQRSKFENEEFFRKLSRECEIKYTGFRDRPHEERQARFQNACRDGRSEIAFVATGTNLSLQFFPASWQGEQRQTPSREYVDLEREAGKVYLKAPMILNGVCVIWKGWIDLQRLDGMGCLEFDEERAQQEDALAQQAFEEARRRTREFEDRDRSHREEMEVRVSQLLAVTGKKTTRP

The molecules below were run against Runt-related transcription factor 1 (Homo sapiens) + Core-binding factor subunit beta (Homo sapiens) (UniProt Q01196+Q13951) (assay: qHTS Assay for Compounds Blocking the Interaction Between CBF-beta and RUNX1 for the Treatment of Acute Myeloid Leukemia: Hit Validation with Orthogonal Assay). Conditions: CBFbeta-RUNX1 binding orthogonal assay, biochemical; series mostly up to 41 µM; activity change, negative = inhibition: at the top concentration.
Summary of the method: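 Compound was incubated for 30 min with biotin-RUNX1 plus His6-CBF-beta at 30 nM per protein. Binding was then detected by TR-FRET between terbium anti-His antibody and 5 nM streptavidin-XL665, read after 90 min, in the same buffer as the AlphaScreen primary assay.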
On the % scale 0 is the no-effect control and ±100 the full control effect.

Activity change, negative = inhibition, inactive:
COC(=O)C(=Cc1ccccc1[N+](=O)[O-])C(=O)OC -1.35%
COC(=O)c1ccc(Cn2cc([N+](=O)[O-])cn2)cc1 12.1%
CC(C)CC(=O)Nc1nnc(CSCc2ccc(F)cc2)s1 13.6%
CC(=O)c1ccc(S(=O)(=O)N2Cc3ccccc3CC2C(=O)O)cc1 (configuration not stated) -4.12%
COc1ccc(C2CN=NC23CCc2ccccc2C3=O)cc1 (configuration not stated) 3.69%
Cc1ccc2c(N)c(C(=O)c3ccccc3)sc2n1 61.8%
Cc1ccc2nc(C)c3c(c2c1)N(c1ccccc1)CC3 12.5%
Cc1cc2c(NS(=O)(=O)c3ccc(F)cc3)cccc2nn1 21.1%
CCOC(=O)N1CCN(CC(=O)Nc2sc(CC)cc2C(=O)c2ccc(OC)cc2)CC1 22.1%
Cc1cccc(CC(=O)c2c[nH]c3ccccc23)c1 -0.122%
COC(=O)c1ccccc1N=Nc1c(C)n[nH]c1C 14.1%
CC(C)C1N(C(N)=S)N=CC1(C)C (configuration not stated) 0.367%
Cc1cc(OCC(=O)c2cccc(C(F)(F)F)c2)n2cnnc2n1 -0.0979%
CC(C)(C)N1CCC1C(N)=O (configuration not stated) -7.25%
O=[N+]([O-])c1cc(Cl)cc(/C=N/NC(=S)Nc2ccc(S(=O)(=O)N3CCOCC3)cc2)c1O 36.7%
COc1ccccc1NC(=O)Nc1sccc1-c1nc2ccccc2s1 10.6%
COc1ccc(NC(=O)C2=NNC(=O)CC2)cc1S(=O)(=O)N1CCCCC1 8.22%
O=C(Nc1ccccc1)N1CCCC1c1cccs1 (configuration not stated) 1.38%
Cc1cccnc1NC(=O)c1csnn1 -6.2%
CCCCCCOc1ccc(N2C(=O)CC(NCc3ccc(S(N)(=O)=O)cc3)C2=O)cc1 (configuration not stated) 3.9%
O=C(N/N=C/c1cccc2nccnc12)c1ccncc1 30.1%
CC1=CC(=O)CC(C)(C)C1(O)/C=C/C(C)=C/C(=O)O (configuration not stated) -0.0489%
COc1cc(/C=N/Nc2ccc(S(N)(=O)=O)cc2[N+](=O)[O-])cc(OC)c1O -1.88%
C/C(=C\C(=O)Nc1cscc1C)C(=O)O -4.11%
Cc1[nH]c(=S)c(C#N)c(C)c1Cc1ccc(Cl)cc1Cl -4.58%
CCOC(=O)c1nnn2c1nc(N1CCN(c3ccccc3)CC1)c1ccccc12 -1%
COC(=O)c1ccc(CN2CCCCC2)cc1 -1.75%
O=C1CN2CCC1C/C2=C\c1ccnc2c(Cl)cccc12 (configuration not stated) 11.1%
Cn1c(SCC(=O)N/N=C/c2ccncc2)nc2ccccc21 8.61%
CCOC(=O)c1sc(NNC(=O)c2ccc(C)cc2)nc1C 8.71%
CC(C)(C)NC(=O)NCCc1ccccc1 2.28%
CC(=O)c1c(COC(=O)c2ccccc2Cl)nc2ccccc2[n+]1[O-] 32.1%
CC(C)c1cc(C(C)C)n2nc(N)nc2n1 -8.23%
O=C(c1ccc(-c2ccccc2)cc1)c1ccc([N+](=O)[O-])cc1 16.1%
COc1ccc2nc(-c3ccc(Cl)cc3)cc(C(=O)O)c2c1 34.7%
O=S(=O)(NCc1ccccn1)c1cc(OCC(F)(F)F)ccc1OCC(F)(F)F 8.87%
CN(C(=O)Nc1ccc(C(C)(C)C)cc1)C1CCCCC1 -20%
COc1ccc(CCNC(=S)NC(=O)c2c(-c3ccccc3Cl)noc2C)cc1OC 4.43%
N#Cc1cccc(C#N)c1Oc1ccc(S(=O)(=O)Nc2ccc(Cl)cc2)cc1 -2.57%
C=C(C)c1cccc(C(C)(C)NC(=O)N2CCN(c3ccccc3)CC2)c1 -1.33%
COC(=O)C/C(N)=C(\C#N)C(=O)OC 2.37%
COC(=O)c1cccnc1Oc1ccccc1 -3.43%
Fc1ccccc1/C=N/n1c(-c2cccnc2)n[nH]c1=S 10.1%
O=C(NC(=S)Nc1ccccc1N1CCCC1)c1cccs1 -0.294%
COc1ccc(-n2c(-c3ccc(Cl)cc3)c[n+]3c2CCCCC3)cc1 6.69%
COc1ccc(N/N=C(\C#N)C(=N)N2CCCCC2)cc1 8.07%
COC(=O)CNC(=O)CSc1ccccn1 7.21%
COc1cc(NCc2ccccc2O)c2ncccc2c1 9.87%
CC(C)(C)S(=O)(=O)/C(C#N)=C/Nc1ccccn1 -1.8%
N#CCN1CCC2(O)CCCCC2C1c1ccc2c(c1)OCO2 (configuration not stated) -2.39%
COc1ccc(-n2c(=S)[nH]c(=O)c3cccnc32)cc1 7.72%
CCCCc1cc(=O)oc2cc(OCc3nn[nH]n3)ccc12 13.3%
COc1ccc(CCNC(=S)NC(=O)c2cccc(Cl)c2)cc1OC 13.9%
COc1ccc(Cn2c(O)c(C=Nc3ccccc3C(=O)O)c3ccccc3c2=O)cc1 17.2%
O=C(/C=C/c1cccnc1)/C=C/c1cccnc1 -1.77%
Cc1c(C(=O)c2ccccc2)oc2ccc3ccccc3c12 11.6%
CCOc1ccc(OCc2ccc(C(=O)NN)o2)cc1 3.02%
CC1CC(=O)Nc2ccccc2N1S(=O)(=O)c1cccc(F)c1 (configuration not stated) -1.7%
Cc1c(C(=O)/C=C/N(C)C)nnn1-c1ccc(F)c(Cl)c1 -1.92%
CCOc1ccc(-n2c(C)cc(/C=N/Nc3nc(C)cc(=O)[nH]3)c2C)cc1 4.27%
CC(=O)NS(=O)(=O)c1ccc(NC(=O)c2cc3c(=O)n4ccccc4nc3s2)cc1 47.1%
C/C(=N\NC1=NCCN1)c1ccc(Cl)cc1 -5.51%
COc1ccccc1N1CC(C)(C)C(=O)N(C(=O)c2ccc(C)cc2)C1=S -1.84%
Cn1nc(-c2ccccc2)cc1NS(=O)(=O)c1ccccc1 14.9%
O=[N+]([O-])c1cccnc1Oc1ccccc1F -10.8%
CCC1(C(=O)OC)CCc2c(cc(OC)c3ccccc23)C1=O (configuration not stated) 4.72%
O=C1COc2cccnc2N1 -2.97%
CCOC(=O)c1sc(NC(=O)CSC(=S)N2CCOCC2)nc1C 4.21%
Cc1nn2c(NCCCn3ccnc3)cc(C(C)C)nc2c1-c1ccccc1 4.28%
CCCCNc1ccc2c3c(cccc13)C(=O)N(CCCC)C2=O 29.7%
Cc1cc(-n2cnc(-c3cn(C)nc3C)n2)no1 -8.1%
CN(C)C(=O)Nc1ccccc1 8.07%
CCOC(=O)Nc1c2ccccc2nc2ccccc12 32.2%
CCCCn1cc([N+](=O)[O-])nc1C -2.36%
CCCn1nc(NC(=O)c2ccco2)c2cc3cc(C)ccc3nc21 36.3%
S=c1[nH]nc(-c2ccccn2)n1/N=C/c1ccco1 -14.1%
COC(=O)[C@H](C)NC(=O)NCc1ccccc1 9.91%
S=C(Nc1ccccc1)Nc1nccs1 -5.57%
S=c1[nH]ccn1-c1ccccc1Cl -1.77%
COC(=O)c1scc(C)c1NS(=O)(=O)c1ccc(NC(C)=O)cc1 -0.979%
CC1SCC(=NOCc2c(Cl)cccc2Cl)CS1 (configuration not stated) 16.9%
Cc1ccc(C#N)c(SCc2ccccc2F)n1 11.8%
Clc1nc(Cl)nc(-c2cn(-c3ccccc3)c3ccccc23)n1 -21.3%
CC1=CC2=NC(=O)/C(=C/c3coc4ccccc4c3=O)C(=N)N2O1 36.4%
Cc1cc(C)c(OCC(=O)N(Cc2ccc(N(C)C)cc2)C2CCS(=O)(=O)C2)c(C)c1 (configuration not stated) 1.38%
CCCCCCC(=O)N(O)C1CC(=O)N(c2ccc(Cl)cc2)C1=O (configuration not stated) 14.4%
COc1ccc(CCn2cnc3c([nH]c4ccccc43)c2=O)cc1 -7.11%
NC(=O)/C(=C\c1ccncc1)c1cccc2ccccc12 16.1%
CCOC(=O)Cc1c[nH]c(=S)[nH]c1=O -1.49%
O=C1c2cccc(Sc3ccccc3)c2C(=O)c2c(Sc3ccccc3)cccc21 10.4%
Cn1ccc(=Nc2ccc(NC(=O)c3ccc(N=c4ccn(C)c5ccc([N+](=O)[O-])cc45)cc3)cc2)cc1 25.6%
C/C(Cc1ccccc1)=N\NC(=O)CNC(=O)Cc1ccc(Cl)cc1 4%
O=C(Nc1ccccc1)NC1CCCCNC1=O (configuration not stated) 6.14%
c1ccc2sc(SCSc3nc4ccccc4s3)nc2c1 -1.49%
CC(C)C(=O)Nc1c(-c2ccccc2)c(=O)c2ccccc2n1C 7.32%
CCOC(=O)CCCC(=O)N1CCOCCOCCOCC1 -2.41%
CN(C)S(=O)(=O)c1ccc(Cl)c(NC(=O)CN2CCN(Cc3ccc4c(c3)OCO4)CC2)c1 7.92%
C/C(=N\O)c1c(O)cc(-c2ccccc2)n(-c2ccccc2)c1=O 0.428%
COc1ccc(NS(=O)(=O)c2ccc3c(c2)CCO3)cc1 -6.74%
CCOC(=O)c1nnsc1-c1ccc(-c2snnc2C(=O)OCC)cc1 1.53%
O=C(N/N=C/c1ccco1)c1cc(C2CC2)[nH]n1 10.7%
C/C(=N\O)C1CC(CC(=O)O)C1(C)C (configuration not stated) 5.63%
Cc1ccc2nc(-c3ccc(N)cc3)sc2c1 8.16%
O=C(CSC(=S)N1CCOCC1)Nc1ncc2c(n1)CCCC2=O 17.9%
O=C(NC(=S)NNC(=O)c1cnccn1)c1ccc(F)cc1 5.29% [at 82.4 µM]
Cc1cc(NC(=O)Nc2cc(Cl)ccc2C)no1 7.84%
COC(=O)c1cnc(N2CCOCC2)nc1C(F)(F)F -8.14%
CCOC(=O)c1nnn2c1nc(N1CCOCC1)c1ccccc12 -10.7%
Cc1cccc(C)c1NC(=S)N1CCOCC1 3.77%
CC(C)(C)OC(=O)N1CCCN(C(=O)Nc2ccccc2)CC1 9%
COc1cccc(C2=NN(C(=O)CCCC(=O)O)C(c3cccs3)C2)c1 (configuration not stated) -3.01%
Cc1cc(NC(=O)c2ccc3c(c2)C(=O)N(CC(C)C)C3=O)no1 12.8%
CN(C)C=Nc1ccccc1C1C=NNC1=O (configuration not stated) 29.8%
C[C@H](NC(=O)OC(C)(C)C)C(=O)N/N=C/c1ccc2nccnc2c1 30.6%
Oc1ccccc1-c1nc(NCc2cccnc2)c2ccccc2n1 0.159%
O=S(=O)(Nc1ccccc1)c1ccc2c(c1)CCO2 -2.7%
Cc1[nH]c2ccccc2c1-c1csc(NC(=O)CSCC(=O)O)n1 12.8%
COC(=O)c1ccc(S(=O)(=O)N(C2CCCCC2)C2CCCCC2)n1C -14%
Cc1cc(C)c2c(N)c(-c3nnc(SCc4ccc(Cl)cc4)n3C)sc2n1 -7.93%
CC1SCC(=NOCc2ccccc2)CS1 (configuration not stated) -11.7%
CC(C)(C)SCCNC(=O)/C=C/c1ccccc1 7.92%
CN(C)/C=C1\N=C(c2cccnc2Oc2ccc(Cl)cc2)OC1=O 27.6%

Five compounds out of the list, arranged by heavy-atom count, high to low.
Activity change, negative = inhibition, inactive:
O=C(CSC(=S)N1CCOCC1)Nc1ncc2c(n1)CCCC2=O 17.9%
CCOC(=O)c1sc(NNC(=O)c2ccc(C)cc2)nc1C 8.71%
NC(=O)/C(=C\c1ccncc1)c1cccc2ccccc12 16.1%
COC(=O)c1ccccc1N=Nc1c(C)n[nH]c1C 14.1%
CC1SCC(=NOCc2c(Cl)cccc2Cl)CS1 (configuration not stated) 16.9%

Filtered by structure: the compounds so far containing a CF3 group
Activity change, negative = inhibition, inactive:
Cc1cc(OCC(=O)c2cccc(C(F)(F)F)c2)n2cnnc2n1 -0.0979%
O=S(=O)(NCc1ccccn1)c1cc(OCC(F)(F)F)ccc1OCC(F)(F)F 8.87%
COC(=O)c1cnc(N2CCOCC2)nc1C(F)(F)F -8.14%

Reprinted from above for reference:
Activity change, negative = inhibition, inactive:
O=C(Nc1ccccc1)N1CCCC1c1cccs1 (configuration not stated) 1.38%
Cc1cccnc1NC(=O)c1csnn1 -6.2%
